# Literature values, collected in US6319897A, “Peptides which inhibit complement activation” (priority 1999, dated 2001).
# For at least one compound, name, drawing or mass did not settle the structure.
# Conditions: cited from earlier work
compound,measurement,value
O=C(NO)c1ccccc1O [salicyl hydroxamate],toxic side effect,systemic lupus erythematosus-like syndrome
